Results are given in words; binding and its absence hold for the method and conditions named. Binding seen in cells or lysates may run through a third protein. Some binding calls cover weakened binding; strength is not graded here.
Target: MYC-tagged HIF-1α wild type (HIF-1α-WT-MYC) (mouse) (UniProt Q61221)
Test: co-IP; IP with the anti-MYC antibody from whole-cell lysates of NIH/3T3 cells transfected with MYC-tagged HIF-1α vectors; 10 µM MG132; basal, 1 mM sodium lactate or hypoxia; blots for VHL or HIF-β

By UniProt entry, the sequences of proteins in these tests, tags left out.
UniProt Q61221: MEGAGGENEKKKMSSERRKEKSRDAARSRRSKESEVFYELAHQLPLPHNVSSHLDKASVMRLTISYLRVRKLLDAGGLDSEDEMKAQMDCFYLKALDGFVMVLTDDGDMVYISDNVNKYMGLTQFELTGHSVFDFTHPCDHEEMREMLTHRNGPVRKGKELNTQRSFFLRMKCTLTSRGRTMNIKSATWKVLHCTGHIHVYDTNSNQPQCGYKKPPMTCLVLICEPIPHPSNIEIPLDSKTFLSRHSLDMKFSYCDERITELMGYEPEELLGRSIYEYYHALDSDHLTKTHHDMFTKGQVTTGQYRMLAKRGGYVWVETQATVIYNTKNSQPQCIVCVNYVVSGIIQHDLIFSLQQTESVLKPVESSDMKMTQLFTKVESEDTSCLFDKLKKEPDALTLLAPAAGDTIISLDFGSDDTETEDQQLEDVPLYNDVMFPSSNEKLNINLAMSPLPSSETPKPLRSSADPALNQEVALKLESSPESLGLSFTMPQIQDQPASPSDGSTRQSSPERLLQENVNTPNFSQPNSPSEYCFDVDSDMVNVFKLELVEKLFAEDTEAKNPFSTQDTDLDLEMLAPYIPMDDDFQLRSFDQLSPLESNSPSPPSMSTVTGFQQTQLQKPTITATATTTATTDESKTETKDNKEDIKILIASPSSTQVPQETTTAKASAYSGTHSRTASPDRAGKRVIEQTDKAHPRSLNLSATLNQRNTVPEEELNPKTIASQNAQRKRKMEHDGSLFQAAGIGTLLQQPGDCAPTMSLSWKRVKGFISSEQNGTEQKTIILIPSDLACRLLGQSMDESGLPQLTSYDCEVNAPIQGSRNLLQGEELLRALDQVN
UniProt P53762: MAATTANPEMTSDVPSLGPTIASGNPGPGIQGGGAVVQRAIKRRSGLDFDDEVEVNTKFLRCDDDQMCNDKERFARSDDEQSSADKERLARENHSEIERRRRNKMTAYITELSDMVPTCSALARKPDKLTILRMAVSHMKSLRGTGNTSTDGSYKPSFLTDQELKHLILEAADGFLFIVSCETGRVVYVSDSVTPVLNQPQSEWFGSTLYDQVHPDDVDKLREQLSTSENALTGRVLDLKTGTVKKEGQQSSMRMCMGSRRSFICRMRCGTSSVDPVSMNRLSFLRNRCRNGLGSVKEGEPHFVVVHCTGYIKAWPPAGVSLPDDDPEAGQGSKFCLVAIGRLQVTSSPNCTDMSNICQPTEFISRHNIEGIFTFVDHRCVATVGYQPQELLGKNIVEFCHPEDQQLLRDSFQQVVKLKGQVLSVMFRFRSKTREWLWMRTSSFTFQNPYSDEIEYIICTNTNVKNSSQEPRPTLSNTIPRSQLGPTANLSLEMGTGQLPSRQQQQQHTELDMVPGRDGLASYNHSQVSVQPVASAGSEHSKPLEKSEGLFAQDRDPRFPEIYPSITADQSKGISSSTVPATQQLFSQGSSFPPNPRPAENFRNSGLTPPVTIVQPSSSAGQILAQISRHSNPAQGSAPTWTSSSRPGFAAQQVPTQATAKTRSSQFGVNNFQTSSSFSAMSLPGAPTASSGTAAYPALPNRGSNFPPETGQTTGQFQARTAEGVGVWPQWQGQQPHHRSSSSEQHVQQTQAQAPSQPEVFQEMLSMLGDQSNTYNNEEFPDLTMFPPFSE

HIF-1β (ARNT), endogenous in NIH/3T3 cells (from UniProt P53762 1-791)
binding: binds
